{"source": "patent US20210196685A1", "about": "“COMPOSITION FOR ERADICATING HELICOBACTER PYLORI” (HK INNO.N CORPORATION, priority 2018, published 2021)", "test": "Clinical Study 1, Cohort 2: 24-hour intragastric pH on repeated co-administration with amoxicillin/clarithromycin", "assay_type": "in vivo, human", "source_text": "To identify an effect of eradicating Helicobacter pylori in the present invention, a clinical study was designed in accordance with a randomized, open-label, active-controlled, parallel and multiple-dose design. A total of 221 patients were subjected to screening for this study. Out of them, 36 patients were registered thereto and the completed clinical results were obtained from 34 patients.\nParticularly, the 36 patients above were divided into three patient groups (T1, T2 and R) and the clinical study was performed accordingly. […]\nThe T1 group was repeatedly given 50 mg of CJ-12420 and 1000 mg of amoxicillin/500 mg of clarithromycin twice a day for seven days; the T2 group was repeatedly given 100 mg of CJ-12420 and 1000 mg of amoxicillin/500 mg of clarithromycin twice a day for seven days; and the R group was repeatedly given 40 mg of pantoprazole and 1000 mg of amoxicillin/500 mg of clarithromycin twice a day for seven days. An intragastric pH was measured from all the subjects on Day 1 for 24 hours, and the intragastric pH was also measured for 24 hours on Day 1 and Day 7 of repeated administration. Also, a negative conversion rate was calculated upon a follow-up visit paid by subjects who were identified to be H. pylori positive on the UBT test during screening, and stability evaluation was performed according to a predetermined schedule. […]", "note": "At least one compound was matched to its structure with a doubt left.", "data": [{"smiles": "COc1ccnc(C[S+]([O-])c2nc3ccc(OC(F)F)cc3[nH]2)c1OC", "note": "(stereo not shown) [pantoprazole]", "values": [{"measurement": "speed of intragastric pH increase (to 6 or more) right after the administration", "value": "slow"}]}]}
